# Results reported in PubChem BioAssay AID540256 (National Center for Advancing Translational Sciences (NCATS), 2011).
# Out of some 300,000 compounds screened, about 3,700 (1.2%) were called active. This list was built around the results that the source calls inconclusive (neither active nor inactive); the mix of calls is not that of the screen. Calls come from the whole dose curve; tested in HEK293 cells. Potencies beside an inconclusive call are fits to weak or partial responses and may not hold up.
# Assay: qHTS for Inhibitors of binding or entry into cells for Lassa Virus; note: nearly all actives have a fitted effect of over 50% in size
# Settings: Lassa virus pseudotype entry inhibition, cell reporter; activity change, negative = inhibition: at 37.9 µM (top of the series) unless noted
# % is set by controls: 0 for no effect and ±100 for the full control effect; potency is the fitted concentration of half-maximal effect.
Compound,"activity change, negative = inhibition",Potency
O=C(c1csc(Nc2ccccc2Cl)n1)N1CCCC1,inactive: -6.43%,–
CC1(C)C=C(c2ccc(C=O)s2)CC(C)(C)N1,–,"inconclusive: 1.26 µM [inhibitor, single point]"
CCc1ccccc1N(C(=O)c1snc(C(N)=O)c1N)C(C(=O)NCC1CCCO1)c1c[nH]c2ccccc12 (stereo not drawn),–,"inconclusive: 12.6 µM [inhibitor, partial curve, poor fit]"
COc1ccccc1CNC(=O)CN1C(=O)NC(c2ccccc2)(c2ccc(C)c(C)c2)C1=O (stereo not drawn),–,"inconclusive: 25.1 µM [inhibitor, single point]"
COc1cccc(/C=N\n2c(C)nnc2C)c1OC,inactive: -2.49%,–
CCOC(=O)c1c(-c2ccccc2Cl)csc1NC(=O)CSc1nc(C)cc(=O)[nH]1,–,"inconclusive: 10.3 µM [inhibitor, partial curve, poor fit]"
COc1ccccc1NC(=S)NC1CCCCC1,–,"inconclusive: 6.31 µM [inhibitor, single point]"
Cc1ccc(C(c2nnnn2C(C)(C)C)N(Cc2ccco2)Cc2cccs2)cc1 (stereo not drawn),–,"inconclusive: 12.6 µM [inhibitor, partial curve, poor fit]"
Nc1nc(N)nc(-c2ccc([N+](=O)[O-])o2)n1,–,"inconclusive: 35.5 µM [inhibitor, single point]"
CCCOc1ccccc1N/C(=N/c1nc(C)cc(C)n1)NC(=O)COc1ccc(OC)cc1,–,"inconclusive: 12.6 µM [inhibitor, single point]"
CCOc1cc(/C=N/NC(=O)c2ccc(CN3CCOCC3)cc2)ccc1OCc1ccccc1,–,"inconclusive: 35.5 µM [inhibitor, single point]"
CCOC(=O)c1cccc(NC(=O)c2cc(S(=O)(=O)N3CCCCCC3)cn2C)c1,inactive: 5.87% [at 46.1 µM],–
O=C(NC1CCN(Cc2ccc(Cl)cc2Cl)CC1)c1ccccc1,–,"inconclusive: 5.01 µM [inhibitor, full curve, poor fit]"
COc1ccc(-c2cc(-c3cccs3)c(C#N)c(SCC(=O)NCc3ccccc3OC)n2)cc1,–,"inconclusive: 29.1 µM [inhibitor, single point]"
CCOc1cnc(-c2c(-c3c(Cl)cccc3Cl)noc2C)o1,–,"inconclusive: 35.5 µM [inhibitor, single point]"
Cc1ccc(-n2ncc3c2CC(C)(C)CC3NC(=O)CCc2ccc(=O)[nH]n2)cc1 (stereo not drawn),inactive: 7.78% [at 46.1 µM],–
CCCNc1ncnc2c1cnn2C1CCCCO1 (stereo not drawn),–,"inconclusive: 35.5 µM [activator, single point]"
CCOc1ccc(CNC(=O)c2ccc3c(c2)nc2n3CCOC2)cc1,–,"inconclusive: 5.62 µM [activator, single point]"
CC(=O)N1CCOc2cc(S(=O)(=O)NCc3ccc(C)cc3)c(C)cc21,–,"inconclusive: 14.1 µM [activator, partial curve, poor fit]"
O=C(CCC(=O)N1CCCC1)N1CCCC1,inactive: 15.3% [at 46.1 µM],–
CCOC(=O)NC(=O)/C(C#N)=N\Nc1cccc(OC)c1,inactive: 9.5%,–
Cc1ccc(C)c2sc(NC(=O)c3ccc(S(=O)(=O)N4CCCC4)cc3)nc12,–,"inconclusive: 2.24 µM [inhibitor, full curve]"

Compound,"activity change, negative = inhibition",Potency
COc1cccc(/C=N/NC(=O)c2nc(-c3ccccc3)cc(-c3ccccc3)n2)c1O,–,"inconclusive: 8.91 µM [inhibitor, partial curve, poor fit]"
O=C(c1cc2ccc3cccnc3c2[nH]1)N1CCN(c2cccc(C(F)(F)F)c2)CC1,–,"inconclusive: 6.31 µM [activator, single point]"
CCN(CC)c1ccc(/C=N/Nc2nc(C)cc(=O)[nH]2)cc1,inactive: -18.2%,–
CCOC(=O)c1ccc(NC(=O)CCS(=O)(=O)c2ccc(C)cc2)cc1,–,"inconclusive: 6.31 µM [activator, partial curve, poor fit]"
CCOC(=O)C1=C(C)NC(SCC(N)=O)=C(C#N)C1c1cccs1 (stereo not drawn),inactive: 1.43%,–
O=C(c1ccc(Cl)c(S(=O)(=O)N2CCCCCC2)c1)N1CCCC1,–,"inconclusive: 11.6 µM [inhibitor, partial curve, poor fit]"
CC(=O)Nc1ccc(NC(=O)CSc2nc3c(=O)n(C)c(=O)n(C)c3n2C)cc1,inactive: 1.74%,–
CCN(CC)S(=O)(=O)c1ccc(-c2nnc(SCC(=O)N3c4ccccc4CC3C)n2CC)cc1 (stereo not drawn),–,"inconclusive: 35.5 µM [inhibitor, single point]"
CCOC(=O)c1c(NC(=O)C2=C(C)NC(=S)NC2c2ccc(CC)cc2)sc(C)c1C (stereo not drawn),–,"inconclusive: 25.9 µM [inhibitor, single point]"
O=c1[nH]c2cc(Cl)c(Cl)cc2[nH]c1=O,–,"inconclusive: 29.1 µM [activator, single point]"
Cc1ccc(NC(=O)c2cn(-c3cccc(C)n3)cn2)cc1,inactive: 10.5%,–
O=c1cc(Cl)c(-c2ccccc2)nn1Cc1ccc(Cl)cc1,inactive: -23.9%,–
CN(C(=O)COC(=O)c1cc2ccccc2cc1O)c1c(N)n(Cc2ccccc2)c(=O)[nH]c1=O,inactive: -22.3%,–
O=C(Nc1cccnc1)c1ccc([N+](=O)[O-])cc1Cl,inactive: 3.4%,–
COc1ccc(-c2cnc(N)n2CC2CCCO2)cc1 (stereo not drawn),–,"inconclusive: 2.91 µM [activator, full curve, poor fit]"
CC(=O)Nc1ccc(NS(=O)(=O)c2ccc3c(c2)CC(C)N3C(=O)C2CCC2)cc1 (stereo not drawn),–,"inconclusive: 35.5 µM [inhibitor, single point]"
COc1ccc(-n2nnnc2SCc2nc3ccccc3s2)cc1,–,"inconclusive: 11.2 µM [inhibitor, partial curve, poor fit]"
COC(=O)CCC(=O)N1CCCC(C(=O)c2ccc(Cl)cc2C)C1 (stereo not drawn),–,"inconclusive: 6.31 µM [inhibitor, single point]"
C[C@]12C[C@@H](O)[C@H](O)CC1=CCC1C2CC[C@]2(C)C(=O)CCC12 (stereo partly drawn),inactive: 21.8%,–
Cc1cccc(C)c1OCCSc1nc2ccccc2n1CC(=O)O,–,"inconclusive: 14.1 µM [activator, single point]"
Cc1ccc(Sc2ccc([N+](=O)[O-])cc2[N+](=O)[O-])nc1,–,"inconclusive: 35.5 µM [inhibitor, partial curve, poor fit]"

# A different layout for some results above.
Compound	activity change, negative = inhibition	Potency
Cc1ccc(NC(=O)c2cn(-c3cccc(C)n3)cn2)cc1	inactive: 10.5%	–
Cc1ccc(Sc2ccc([N+](=O)[O-])cc2[N+](=O)[O-])nc1	–	inconclusive: 35.5 µM [inhibitor, partial curve, poor fit]
